Laboratory results taken from patent US6326464.
The exact form of at least one protein or probe is not confirmed.

Biological target: wild-type p53 (Homo sapiens) (UniProt P04637)
Experiment: EMSA
Details: 3-30 ng protein, 5 mM MgCl2, 0.05 mM ZnCl2, 0.1 M NaCl, on ice, 300 ng pAb421; purified recombinant protein; label: 33P 5' end

GATCCGAACATGTCCCAACATGTTGA / AGCTTCAACATGTTGGGACATGGTCG [WAF-RE]
binding result: binds
